No constants are given. Whether binding was seen depends on the method and setting. Binding seen in cells or lysates may run through a third protein. A result given as binding can be weak or reduced; the word gives no strength. Sequences can lack the tags named with a protein.
Columns and labels:
[1] = target: HA-tagged human progranulin (human); assay: proximity ligation; HEK-293 cells transfected with GBA-myc-Flag and HA-GRN, fixed 48 h later; anti-HA and anti-Flag antibodies, Duolink proximity ligation kit; controls: one construct only, or no primary antibodies
[2] = target: HA-tagged human progranulin (human); assay: co-IP; HEK-293 cells co-transfected with HA-GRN and/or GBA-myc-Flag, harvested after 48 h in 50 mM Tris, 150 mM NaCl, 5 mM EDTA, 1% Triton X-100, 0.1% sodium deoxycholate; HA-progranulin immunoprecipitated from 100 μg lysate protein with anti-HA antibody; blotted for Flag

B1: myc-Flag-tagged human GCase (β-glucocerebrosidase) (enzyme, UniProt P04062 40-536)
chain: ARPCIPKSFGYSSVVCVCNATYCDSFDPPTFPALGTFSRYESTRSGRRMELSMGPIQANHTGTGLLLTLQPEQKFQKVKGFGGAMTDAAALNILALSPPAQNLLLKSYFSEEGIGYNIIRVPMASCDFSIRTYTYADTPDDFQLHNFSLPEEDTKLKIPLIHRALQLAQRPVSLLASPWTSPTWLKTNGAVNGKGSLKGQPGDIYHQTWARYFVKFLDAYAEHKLQFWAVTAENEPSAGLLSGYPFQCLGFTPEHQRDFIARDLGPTLANSTHHNVRLLMLDDQRLLLPHWAKVVLTDPEAAKYVHGIAVHWYLDFLAPAKATLGETHRLFPNTMLFASEACVGSKFWEQSVRLGSWDRGMQYSHSIITNLLYHVVGWTDWNLALNPEGGPNWVRNFVDSPIIVDITKDTFYKQPMFYHLGHFSKFIPEGSQRVGLVASQKNDLDAVALMHPDGSAVVVVLNRSSKDVPLTIKDPAVGFLETISPGYSIHTYLWRRQ
binding [1]: binds
binding [2]: binds

Reference: publication PMC6929503
